A short description of data set [1]: Fragrance Fidelity Index (FFI) assigned by perfumers/expert graders on fabric swatches. Further details: species or system human; key: FFI grade on reference scale anchored by 0, 1, 2, 3 swatches. The text has this: Blocker materials suitable for use in consumer products of the present invention are chosen for their ability to decrease malodor, while not interfering with perception of a fragrance. Material selection is done by assigning two indices to a test sample material from two reference scales in order to rank odor strengths. The two reference scales are the Fragrance Fidelity Index (FFI) scale and the Blocker Index (BI) scale. The FFI ranks the ability of the test sample material to impart a perceivable odor which could cause interference when combined with another fragrance and the BI ranks the ability of the test sample material to reduce malodor perception. The two methods for assigning the indices to a test sample on the FFI and the BI reference scales are given below.
The first step in the method for assigning an FFI to the test samples on the FFI reference scale is to create the FFI reference swatches. […] Fabric swatches for this test are white knit polycotton (4 inch×4 inch) swatches from EMC ordered as PC 50/50. The supplier is instructed to strip the swatches first, stripping involves washing twice with a fragrance-free detergent and rinsing three times.
Pipette 13 μL of each of the three solutions into the middle of a clean swatch resulting in about a 1 cm diameter of the solution in the middle of the swatch. This will create a sensory scale of three swatches with three different odor levels based on the concentration of the solution pipetted onto the swatch. After drying for 30 minutes in a vented hood, the swatches are wrapped in aluminum foil to prevent odor contamination to the treated swatch. A clean untreated swatch is also included as the lowest anchor point of reference for odor strength on the FFI scale. The FFI reference scale swatches should be used within 0.5 to 12 hours and discarded after 12 hours. The swatches are used as scale anchor points when graders evaluate a test sample(s) and are assigned a Fragrance Fidelity Index (FFI) as show in Table 7.
The perfumer/expert panel is asked to rank order swatches according to a scale between 0 and 3.
The reference swatches represent the 0, 1, 2, and 3 FFIs on the FFI reference scale, Table 9. The expert grader should familiarize them self with the strength of the odor on the FFI reference swatches by sniffing each one starting at 0 (the lowest odor strength) and ending at 3 (the highest odor strength). This should be done prior to evaluating the test sample material treated swatch.
A clean swatch is treated with 13 μL of a known concentration of a test sample material resulting in an about 1 cm of the solution on the clean swatch. Just like the reference swatches, the test sample material swatch is dried in a vented hood for 30 minutes and then wrapped in aluminum foil to prevent contamination. The test material swatches and the FFI reference swatches should be made within 2 hours of each other. The test material swatch must be used within 0.5 to 12 hours and discarded after 12 hours.
At least two perfumers/expert graders are used to assign an FFI grade to a test sample. The perfumer/expert grader smells the test sample swatch by holding that swatch 1 inch from their nose with their nose centered over the area where the test sample was pipetted on to the fabric and then assigns the test sample an FFI grade using the FFI reference scale anchor swatches as references. […]

Data set [2] in a line: Melamine formaldehyde PMC Headspace Response Ratio. To be noted: for Comment Code: Melamine formaldehyde PMC Headspace Response Ratio: code letter I.
Data set [3] is described as follows: Melamine formaldehyde PMC leakage. As to conditions: for Comment Code: Melamine formaldehyde PMC leakage: code letter J.
[4] abbreviates: test material at 10 ppm on swatch.
Setting [5] is: test material at 50 ppm on swatch.
[6] abbreviates: class code letter within Comment Code.

Where two headings read alike, the source gives them in different places. Some entries repeat one wording, which the source may state once for all of them.

`CC1(C)CCc2ccc(CCC=O)cc21`: the FFI is 0 in data set [1] (setting [4]) and 0.5 in data set [1] (setting [5]).
In data set [1] (setting [5]), `CC1CCC2(C(C)C)CC(C)OC2C1` (stereo not shown) yielded an FFI of 0.3.
Take `CCC(=O)OC1CC2C3C=CCC3C1C2(C)C` (stereo not shown) [8,8-dimethyl-3a,4,5,6,7,7a-hexahydro-1H-4,7-methanoinden-6-yl propionate]: the FFI in data set [1] (setting [4]) and in data set [1] (setting [5]) was 0 in each case.
Take `CC(C)C1OC2(CCCC2)OCC1(C)C` (stereo not shown) [Material 25]: the “Melamine formaldehyde PMC Headspace Response Ratio (Comment Code I)” value in data set [2] (setting [6]) is “I (Melamine formaldehyde PMC Headspace Response Ratio greater than or equal to 10)”. Also, the “Melamine formaldehyde PMC leakage (Comment Code J)” value in data set [3] (setting [6]) is “J (Melamine formaldehyde PMC leakage less than or equal to 5%)”.
Consider `CC(C)=CCCC(C)CC=O` (stereo not shown) [Material 891], for which, in data set [2], the “Comment Code: Melamine formaldehyde PMC Headspace Response Ratio” value was “I (Melamine formaldehyde PMC Headspace Response Ratio greater than or equal to 10)”. The “Comment Code: Melamine formaldehyde PMC leakage” value in data set [3] was “J (Melamine formaldehyde PMC leakage less than or equal to 5%)”.
As to `C=CC1(C)CCC(C(=C)C)O1` (stereo not shown) [Material 786], in data set [2], the “Melamine formaldehyde PMC Headspace Response Ratio (Comment Code I)” value is “I (Melamine formaldehyde PMC Headspace Response Ratio greater than or equal to 10)”. Further, the “Melamine formaldehyde PMC leakage (Comment Code J)” value in data set [3] is “J (Melamine formaldehyde PMC leakage less than or equal to 5%)”.
Consider `CC1CCC(C(C)(C)S)C(=O)C1` (stereo not shown) [Material 1059], for which, in data set [2], the “Melamine formaldehyde PMC Headspace Response Ratio (Comment Code I)” value is “I (Melamine formaldehyde PMC Headspace Response Ratio greater than or equal to 10)”. Also, the “Melamine formaldehyde PMC leakage (Comment Code J)” value in data set [3] is “J (Melamine formaldehyde PMC leakage less than or equal to 5%)”.
Taken in the same sequence, the figures for `CCCCCC1C(=O)CCC1C` (stereo not shown) [Material 1053] were “I (Melamine formaldehyde PMC Headspace Response Ratio greater than or equal to 10)” and “J (Melamine formaldehyde PMC leakage less than or equal to 5%)”.
As to `CC1=CC2(C=CC(C)O2)C(C(C)C)CC1` (stereo not shown) [Material 68], the “Melamine formaldehyde PMC Headspace Response Ratio (Comment Code I)” value in data set [2] (setting [6]) was “I (Melamine formaldehyde PMC Headspace Response Ratio greater than or equal to 10)”. Besides, the “Melamine formaldehyde PMC leakage (Comment Code J)” value in data set [3] (setting [6]) was “J (Melamine formaldehyde PMC leakage less than or equal to 5%)”.
With `CC12CCC(C1)C(C)(C)C2O` (stereo not shown) [Material 366], the “Comment Code: Melamine formaldehyde PMC Headspace Response Ratio” value in data set [2] is “I (Melamine formaldehyde PMC Headspace Response Ratio greater than or equal to 10)”. The “Comment Code: Melamine formaldehyde PMC leakage” value in data set [3] is listed as “J (Melamine formaldehyde PMC leakage less than or equal to 5%)”.

Values taken from patent US20160090556A1, “PRODUCTS COMPRISING MALODOR REDUCTION MATERIALS” (The Procter & Gamble Company, priority 2014, published 2016).
